{"source": "patent US10543178B2", "about": "“Dosage forms and related therapies” (PhilERA New Zealand Limited, priority 2002, dated 2020)", "key": {"humans with T2DM": {"tested_on": "humans with T2DM", "test": "6-month randomized double-blind placebo-controlled trial of oral trientine, LV mass by cardiac MRI", "conditions": "6 months - baseline, mean; trientine 600 mg twice-daily"}, "STZ diabetic rats": {"tested_on": "STZ diabetic rats", "test": "Isolated working heart: cardiac function after 7 weeks oral trientine in drinking water", "conditions": "trientine weeks 7-13, mean ± SD"}}, "data": [{"smiles": "NCCNCCNCCN", "note": "[trientine, N,N′-Bis(2-aminoethyl)-1,2-ethanediamine]", "values": [{"measurement": "Δ diastolic blood pressure", "setting": "humans with T2DM", "value": "−3.9", "unit": "mmHg"}, {"measurement": "Δ systolic blood pressure", "setting": "humans with T2DM", "value": "−3.5", "unit": "mmHg"}, {"measurement": "Final weight", "setting": "STZ diabetic rats; STZ/D7: diabetic rats, n = 8", "value": "290 ± 56", "unit": "g"}, {"measurement": "Final weight", "setting": "STZ diabetic rats; Sham/D7: non-diabetic rats, n = 11", "value": "563 ± 17", "unit": "g"}]}]}
